The values that follow come from patent US20050118310A1, “Formulations of compounds derived from natural sources and their use with irradiation for food preservation” (priority 2001, published 2005).

Structures are written as SMILES.

A short description of this data set: Organoleptic acceptability of treated meat.

Turning to `O=C/C=C/c1ccccc1` [Trans-cinnamaldehyde, trans-cinnamaldehyde], the smell and taste entry (trans-cinnamaldehyde […] on the chicken breast) was “acceptable”. The “effect on the organoleptic qualities of ground beef” value (trans-cinnamaldehyde […], preliminary experiments) is given as “did not affect the organoleptic qualities”.
